Experiments:
rat hepatocytes = assay: cells; format: cell-based; conditions: Hepatocyte, 24 h, 24 h treatment, read-out: Survival IC50
dog hepatocytes = assay: Cell survival of primary dog hepatocytes (Cellomics Arrayscan); format: cell-based; conditions: Canis lupus familiaris, Hepatocyte, 24 h, 24 h treatment
Procedure: Primary rat hepatocytes were freshly isolated from Han Wistar rats at AstraZeneca, using the collagenase perfusion method (Selgen, PO, 1976). Primary dog hepatocytes were isolated at AstraZeneca, or purchased from CellzDirect Corp. (Durham, NC), which also uses a collagenase perfusion method. […]
In a modification of the procedure described by Morelli et al., hepatocytes were treated with drugs diluted into culture media containing 12 μg/mL NBD-PE (N-(7-nitrobenz-2-oxa-1,3-diazol-4-yl)-1,2-dihexadecanoyl-sn-glycero-3-phosphoethanolamine, triethylammonium salt) for 24 hours. […] This fluorescent dye stains only cells with compromised cell membranes thereby enabling their exclusion from NBD-PE cell quantitation by the Cellomics ArrayScan instrument. […] Labeled cells were analyzed using the Cellomics Arrayscan instrument (Cellomics Inc., Pittsburgh, PA) with version 3.5 equipment and software. The ArrayScan captures fluorescent images in the 3 channels relevant to this assay (Hoechst, TRITC for Sytox staining and FITC for NBD-PE staining) and performs automated image analysis to quantify cell nuclei, the number of dead cells, and NBD-PE dye fluorescent intensity. […]

CNCCC(Oc1ccc(C(F)(F)F)cc1)c1ccccc1 (centres unmarked) [Fluoxetine, reference compound]
IC50 (rat hepatocytes): 61 µM
IC50 (dog hepatocytes): 19 µM

From article PMC3610344, “Differential Cytotoxicity Responses by Dog and Rat Hepatocytes to Phospholipogenic Treatments” (Journal of Toxicology, 2013)
